Laboratory results as given in patent US20140179773A1, “METHOD FOR THE TREATMENT OF HEART RELATED DISORDERS IN NAFLD PATIENTS” (INSTITUTO BIOCHIMICO ITALIANO GIOVANNI LORENZINI S.P.A., priority 2012, published 2014).
Entries after “also recorded” stand apart in the source; their conditions may differ. At least one structure is not confirmed: it was looked up by name or label, or the drawing left a doubt.

Legend:
[1] = test system: db/db mice fed a methionine-choline deficient (MCD) diet; assay: Biometric and serum biochemical parameters in db/db mice fed MCD diet; format: in vivo
Excerpt: This study is aimed at assessing the efficacy of silibinin both on liver and heart injury in NAFLD and at identifying the related molecular events. In order to investigate this issue, we used db/db mice fed a methionine-choline deficient (MCD) diet, a model combining the features of the metabolic syndrome with the histological pattern of NASH [23,24]. In fact, db/db mice fed an MCD diet do partially conserve increased visceral adiposity and an insulin resistant phenotype, while developing hepatocellular injury.
All procedures fulfilled the Italian Guidelines for the Use and Care of Laboratory Animals. Six-week-old male BKS.Cg-m+/+ Leprdb/J (db/db) obese mice and six-week-old male heterozygous db/m lean control mice were purchased. Animals were maintained in a temperature and light-controlled facility and permitted ad libitum consumption of water; after two week of acclimation, db/db mice were fed a MCD diet for 4 weeks, whereas db/m mice were fed a MCD diet supplemented with methionine and choline, i.e. a standard diet (SD), for the same period. Silibinin was dissolved in saline (vehicle) and daily administered intraperitoneally at a dosage of 20 mg/kg of body weight. Mice were distributed in 3 groups: group I included 6 db/m mice fed a control diet and treated with vehicle (db/m+SD); group II comprised 6 db/db mice fed a MCD diet and treated with vehicle (db/db+MCD); group III included 6 db/db mice fed a MCD diet and treated with silibinin (db/db+MCD+silibinin). Treatment was administered for a 4-week period; at the end of it, animals were sacrificed after an overnight fast. Blood, liver and heart samples were obtained and stored at −80° C. for further analysis.
(§1) Blood glucose was measured by Accuchek (Roche Diagnostics, Milan, Italy). Serum ALT and serum insulin were determined using a multichannel autoanalyzer. Liver triglycerides content was measured using a serum/tissue triglyceride colorimetric kit (Biovision, Mountain View, Calif.). Liver and heart isoprostanes and 8-hydroxyguanosine (8-OHG) were determined by enzyme-linked immunosorbent assay (ELISA) test; reduced glutathione (GSH) was assessed by a GSH assay. Liver and heart nitrite/nitrates were measured colorimetrically using Griess reagent, following manufacturer's instructions. ELISA kit for TNF-α was used on whole myocardial tissue protein extracts, following manufacturer's instructions.

[2] = test system: db/db mice fed a methionine-choline deficient (MCD) diet; assay: Liver and heart oxidative/nitrosative stress markers (isoprostanes, 8-OHG, GSH, nitrite/nitrates); format: in vivo
[3] = test system: Liver mitochondrial respiratory chain (MRC) complexes I-V; assay: Mitochondrial respiratory chain activity assay in liver of treated mice; format: in vivo
Excerpt: All procedures fulfilled the Italian Guidelines for the Use and Care of Laboratory Animals. Six-week-old male BKS.Cg-m+/+ Leprdb/J (db/db) obese mice and six-week-old male heterozygous db/m lean control mice were purchased. Animals were maintained in a temperature and light-controlled facility and permitted ad libitum consumption of water; after two week of acclimation, db/db mice were fed a MCD diet for 4 weeks, whereas db/m mice were fed a MCD diet supplemented with methionine and choline, i.e. a standard diet (SD), for the same period. Silibinin was dissolved in saline (vehicle) and daily administered intraperitoneally at a dosage of 20 mg/kg of body weight. […] Mitochondrial respiratory chain (MRC) activities was determined as previously described. […] Respiratory chain enzymes and citrate synthase activities were measured in a DU-650 spectrophotometer. […] Enzyme activities were assessed in supernatants, expressed as nanomoles of substrate used per minute per milligram of protein and referred as a percentage of the specific activity of citrate synthase, to adjust for the hepatic content of mitochondria.

[4] = test system: TNF-α, IL-6, MCP-1, IL-4, IFN gene expression; assay: Liver cytokine gene expression by real time PCR; format: in vivo, mice
[5] = test system: db/db mice fed a methionine-choline deficient (MCD) diet; assay: Liver triglycerides content (colorimetric kit) in db/db mice fed MCD diet; format: in vivo
Excerpt: All procedures fulfilled the Italian Guidelines for the Use and Care of Laboratory Animals. Six-week-old male BKS.Cg-m+/+ Leprdb/J (db/db) obese mice and six-week-old male heterozygous db/m lean control mice were purchased. Animals were maintained in a temperature and light-controlled facility and permitted ad libitum consumption of water; after two week of acclimation, db/db mice were fed a MCD diet for 4 weeks, whereas db/m mice were fed a MCD diet supplemented with methionine and choline, i.e. a standard diet (SD), for the same period. Silibinin was dissolved in saline (vehicle) and daily administered intraperitoneally at a dosage of 20 mg/kg of body weight. […]
as §1, with “ELISA kit for TNF-α was used on whole myocardial tissue protein extracts, following manufacturer's instructions.” left out

[6] = test system: TNF-α and IL-6 protein in myocardium; assay: Heart cytokine protein levels (ELISA on myocardial protein extracts); format: in vivo, mice
p-JNK = assay: Immunohistochemistry for phosphorylated JNK on liver sections; format: in vivo; settings: silibinin-treated vs vehicle db/db mice fed MCD diet, FIG. 4
[7] = test system: db/db mice fed a methionine-choline deficient (MCD) diet; assay: Histopathology of liver and heart (hematoxylin-eosin, NAFLD activity score); format: in vivo
[8] = vs untreated db/db fed MCD diet

Structure (SMILES): COc1cc(C2Oc3cc([C@H]4Oc5cc(O)cc(O)c5C(=O)[C@@H]4O)ccc3OC2CO)ccc1O (stereo partly shown) [silibinin, Silibinin]
- Effect on fasting glucose [1, 8]: decreased
- Effect on fasting insulin [1, 8]: decreased
- Effect on insulin resistance (HOMA-IR, words) [1, 8]: completely reversing
- Effect on body weight ([1]; week 12, vs vehicle db/db fed MCD diet): did not significantly decrease
- Heart isoprostanes ([2]; heart, FIG. 3A): decreased to the levels of lean controls
- Heart 8-OHG ([2]; heart, FIG. 3B): decreased to the levels of lean controls
- Heart GSH content ([2]; heart, FIG. 3C): restored GSH content to lean mice levels
- Heart nitrite/nitrates levels ([2]; heart, FIG. 3D): returned them to the levels of lean mice; also recorded: restored to lean controls levels
- Liver isoprostanes ([2]; liver, FIG. 2A): significantly decreased
- Liver 8-OHG ([2]; liver, FIG. 2B): significantly decreased
- Liver GSH content ([2]; liver, FIG. 2C): completely restored; also recorded: restored GSH content to lean mice levels
- Liver nitrite/nitrates levels ([2]; liver, FIG. 2D): restored them to the levels of lean mice; also recorded: restored to lean controls levels
- Activity of the five complexes of MRC [3]: completely restored
- Liver TNF-α gene expression ([4]; FIG. 2E): reversed
- Liver IL-6 gene expression ([4]; FIG. 2F): increased; also recorded: reversed
- IFN gene expression ([4]; data not shown): not significantly modified
- IL-4 gene expression ([4]; data not shown): not significantly modified
- MCP-1 gene expression ([4]; data not shown): not significantly modified
- Liver triglycerides content [5]: marked decrease
- Heart TNF-α protein levels ([6]; FIG. 3E): decreased to the levels of lean animals; also recorded: restore heart TNF-α and IL-6 to lean animals levels
- Heart IL-6 levels ([6]; FIG. 3F): restored to the levels of lean animals; also recorded: restore heart TNF-α and IL-6 to lean animals levels
- Liver staining for phosphorylated JNK (p-JNK): decrease of immune-positivity
- NAFLD activity score (NAS) ([7]; FIG. 1G, P<0.05 vs db/db+MCD): significantly decreased
- Hepatocyte ballooning degeneration ([7]; liver sections, FIG. 1): reduced ballooning
- Liver steatosis (histology, words) ([7]; liver sections, FIG. 1): marked decrease of steatosis; also recorded: markedly reduced in grade
- Lobular inflammation ([7]; liver sections, FIG. 1): absence of inflammatory cells; also recorded: almost absent
- Myocardial injury (histology, words) ([7]; myocardial sections, FIG. 1): absence of fat accumulation; also recorded: markedly improved
- Myocardiocytes morphology ([7]; myocardial sections, FIG. 1): preserved; also recorded: reversed the morphological abnormalities in most myocardiocytes
